Data source: PubChem BioAssay AID1259254 (NCATS, 2017)

Aim: 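Genome-wide screen for genes that prevent DNA re-replication in cancer cells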 (primary screen)
Cells: human HCT116 colorectal cancer cells
Reagents: single siRNA against human genes
Timing: 3 days
Read-out: 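Nuclei stained with Hoechst and imaged; cell-cycle phase assigned by DNA content; G2 share scaled per plate, non-targeting siRNA 0%, GMNN siRNA 100%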
Reading the numbers: G2 robust z-score and G2 cells, % of GMNN control: higher = more G2 cells, more excess DNA replication; raw share of cells in G2: higher = larger share of cells with G2 DNA content
Call rule: 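Active siRNAs have a G2 robust z of 5 or more median absolute deviations over the median, which in these data means about 38% or higher of GMNN control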
The deposit covers about 59,000 reagents; shown is a random part of them. About 1,550 of all reagents (2.6%) were called active. 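G2 share is only a proxy for re-replication; each gene was hit by three separate siRNAs, and active genes were retested.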 Raw values are not corrected between plates. Entries without a mark were called inactive. Reagents against one gene are numbered here. No sequences are given here. Not given: the amount of reagent.

Target gene | reagent | G2 robust z-score | G2 cells, % of GMNN control | raw share of cells in G2 (%)
SACK1H (scaffolding CK1 anchoring protein H) | 1 | -0.807 | -2.71 | 2.65
SACK1H (scaffolding CK1 anchoring protein H) | 2 | -0.519 | -0.683 | 2.78
SACK1H (scaffolding CK1 anchoring protein H) | 3 | -0.518 | -0.674 | 3.06
CDC20 (cell division cycle 20) | 1 | -0.724 | -2.13 | 2.62
CDC20 (cell division cycle 20) | 2 | 9.03 (active) | 66.5 | 36
CDC20 (cell division cycle 20) | 3 | 3.56 | 28 | 13.3
KAT7 (lysine acetyltransferase 7) | 1 | 0.0735 | 3.48 | 5.06
KAT7 (lysine acetyltransferase 7) | 2 | -0.514 | -0.651 | 3.94
KAT7 (lysine acetyltransferase 7) | 3 | -0.0659 | 2.5 | 7.37
NPY (neuropeptide Y) | 1 | -0.458 | -0.252 | 4.43
NPY (neuropeptide Y) | 2 | 1.08 | 10.6 | 6.52
NPY (neuropeptide Y) | 3 | -0.351 | 0.494 | 6.02
FBXO6 (F-box protein 6) | 1 | -0.383 | 0.27 | 6.29
FBXO6 (F-box protein 6) | 2 | 0.314 | 5.18 | 5.91
FBXO6 (F-box protein 6) | 3 | 1.71 | 15 | 8.9
NUTM2F (NUT family member 2F) | 1 | 9.16 (active) | 67.4 | 27.7
NUTM2F (NUT family member 2F) | 2 | 1.46 | 13.3 | 9.86
NUTM2F (NUT family member 2F) | 3 | -0.226 | 1.38 | 3.65
ZPBP2 (zona pellucida binding protein 2) | 1 | 1.37 | 12.6 | 9.16
ZPBP2 (zona pellucida binding protein 2) | 2 | -0.965 | -3.83 | 2.19
ZPBP2 (zona pellucida binding protein 2) | 3 | -0.138 | 2 | 2.4
ALDOC (aldolase, fructose-bisphosphate C) | 1 | -0.0473 | 2.63 | 6.01
ALDOC (aldolase, fructose-bisphosphate C) | 2 | 3.53 | 27.8 | 14.3
ALDOC (aldolase, fructose-bisphosphate C) | 3 | 1.59 | 14.2 | 9.55
NCALD (neurocalcin delta) | 1 | 0.564 | 6.94 | 5.24
NCALD (neurocalcin delta) | 2 | -0.812 | -2.74 | 4.67
NCALD (neurocalcin delta) | 3 | 0.34 | 5.36 | 5.32
EDC3 (enhancer of mRNA decapping 3) | 1 | -0.936 | -3.62 | 2.94
EDC3 (enhancer of mRNA decapping 3) | 2 | 0.301 | 5.09 | 6.53
EDC3 (enhancer of mRNA decapping 3) | 3 | 0.823 | 8.76 | 4.77
ZNF470 (zinc finger protein 470) | 1 | 2.2 | 18.4 | 9.43
ZNF470 (zinc finger protein 470) | 2 | 2.81 | 22.8 | 11.1
ZNF470 (zinc finger protein 470) | 3 | -0.52 | -0.689 | 3.28
GNAT1 (G protein subunit alpha transducin 1) | 1 | -0.132 | 2.04 | 4.38
GNAT1 (G protein subunit alpha transducin 1) | 2 | -0.238 | 1.29 | 5.71
GNAT1 (G protein subunit alpha transducin 1) | 3 | -0.569 | -1.03 | 4.87
KCNH8 (potassium voltage-gated channel subfamily H member 8) | 1 | 1.81 | 15.7 | 11
KCNH8 (potassium voltage-gated channel subfamily H member 8) | 2 | -0.665 | -1.71 | 4.2
KCNH8 (potassium voltage-gated channel subfamily H member 8) | 3 | -0.75 | -2.31 | 3.47
PCTP (phosphatidylcholine transfer protein) | 1 | 1.19 | 11.3 | 10.3
PCTP (phosphatidylcholine transfer protein) | 2 | -0.429 | -0.0514 | 4.21
PCTP (phosphatidylcholine transfer protein) | 3 | 2.9 | 23.4 | 12.6
B3GAT2 (beta-1,3-glucuronyltransferase 2) | 1 | 1.48 | 13.4 | 9.59
B3GAT2 (beta-1,3-glucuronyltransferase 2) | 2 | -0.444 | -0.156 | 4.64
B3GAT2 (beta-1,3-glucuronyltransferase 2) | 3 | -0.548 | -0.89 | 5.53
TNFAIP8 (TNF alpha induced protein 8) | 1 | 1.61 | 14.3 | 9.79
TNFAIP8 (TNF alpha induced protein 8) | 2 | 0.582 | 7.06 | 7
TNFAIP8 (TNF alpha induced protein 8) | 3 | 0.119 | 3.8 | 4.63
TBC1D14 (TBC1 domain family member 14) | 1 | 0.83 | 8.81 | 7.82
TBC1D14 (TBC1 domain family member 14) | 2 | -1.12 | -4.91 | 2.11
TBC1D14 (TBC1 domain family member 14) | 3 | 0.526 | 6.67 | 5.14
MICAL1 | 1 | -0.232 | 1.33 | 4.71
MICAL1 | 2 | -0.822 | -2.81 | 3.35
MICAL1 | 3 | 2.51 | 20.7 | 14.2
CYSLTR2 (cysteinyl leukotriene receptor 2) | 1 | -1.28 | -6.02 | 3.69
CYSLTR2 (cysteinyl leukotriene receptor 2) | 2 | -0.879 | -3.22 | 3.39
CYSLTR2 (cysteinyl leukotriene receptor 2) | 3 | 5.68 (active) | 42.9 | 16.4

Active calls, among the entries above:
Target gene | reagent | G2 robust z-score | G2 cells, % of GMNN control | raw share of cells in G2 (%)
CDC20 (cell division cycle 20) | 2 | 9.03 (active) | 66.5 | 36
NUTM2F (NUT family member 2F) | 1 | 9.16 (active) | 67.4 | 27.7
CYSLTR2 (cysteinyl leukotriene receptor 2) | 3 | 5.68 (active) | 42.9 | 16.4

The list goes on.
Target gene | reagent | G2 robust z-score | G2 cells, % of GMNN control | raw share of cells in G2 (%)
CCDC12 (coiled-coil domain containing 12) | 1 | 3.36 | 26.6 | 12.8
CCDC12 (coiled-coil domain containing 12) | 2 | -0.979 | -3.92 | 1.7
CCDC12 (coiled-coil domain containing 12) | 3 | 0.725 | 8.07 | 5.88
DNHD1 (dynein heavy chain domain 1) | 1 | -0.201 | 1.56 | 4.35
DNHD1 (dynein heavy chain domain 1) | 2 | -0.0766 | 2.43 | 3.66
DNHD1 (dynein heavy chain domain 1) | 3 | 0.433 | 6.01 | 5.17
DNHD1 (dynein heavy chain domain 1) | 4 | 0.417 | 5.9 | 5.79
DNHD1 (dynein heavy chain domain 1) | 5 | 2.05 | 17.4 | 9.78
DNHD1 (dynein heavy chain domain 1) | 6 | -0.582 | -1.13 | 2.92
DNHD1 (dynein heavy chain domain 1) | 7 | -1.09 | -4.71 | 2.16
DNHD1 (dynein heavy chain domain 1) | 8 | -0.835 | -2.91 | 2.14
DNHD1 (dynein heavy chain domain 1) | 9 | 1.03 | 10.2 | 9.03
STEAP1 (STEAP family member 1) | 1 | -0.911 | -3.44 | 2.17
STEAP1 (STEAP family member 1) | 2 | -0.638 | -1.52 | 3.27
STEAP1 (STEAP family member 1) | 3 | 3.42 | 27.1 | 14.8
MSH6 (mutS homolog 6) | 1 | -0.962 | -3.8 | 3.66
MSH6 (mutS homolog 6) | 2 | 0.558 | 6.89 | 8.31
MSH6 (mutS homolog 6) | 3 | 2.2 | 18.4 | 11
CADM1 (cell adhesion molecule 1) | 1 | -0.533 | -0.783 | 5.81
CADM1 (cell adhesion molecule 1) | 2 | 4.63 | 35.5 | 16
CADM1 (cell adhesion molecule 1) | 3 | -0.829 | -2.86 | 3.05
SEC24D (SEC24 homolog D, COPII component) | 1 | -1.1 | -4.77 | 1.57
SEC24D (SEC24 homolog D, COPII component) | 2 | -1.19 | -5.43 | 2.55
SEC24D (SEC24 homolog D, COPII component) | 3 | 2.18 | 18.3 | 12.1
CASZ1 (castor zinc finger 1) | 1 | 0.314 | 5.18 | 4.62
CASZ1 (castor zinc finger 1) | 2 | 4.3 | 33.2 | 20.9
CASZ1 (castor zinc finger 1) | 3 | -0.322 | 0.703 | 3.85
CREB3L1 (cAMP responsive element binding protein 3 like 1) | 1 | -0.712 | -2.04 | 3.71
CREB3L1 (cAMP responsive element binding protein 3 like 1) | 2 | 1.3 | 12.1 | 10.2
CREB3L1 (cAMP responsive element binding protein 3 like 1) | 3 | -0.993 | -4.02 | 3.8
